{"source": "patent US9018176B2", "about": "“Inducers of hematopoiesis and fetal globin production for treatment of cytopenias and hemoglobin disorders” (priority 2010, dated 2015)", "origin": "cited, not measured here", "test_system": "histone deacetylases", "settings": "comparison for Resveratrol; cited from earlier work", "note": "At least one compound was matched to its structure with a doubt left.", "data": [{"smiles": "CCCC(=O)O", "note": "[Butyrate, butyrate]", "values": [{"measurement": "concentration at which other histone deacetylase inhibitors act", "result": 1, "unit": "mM"}]}]}
